Experimental findings from PubChem BioAssay AID2685 (National Center for Advancing Translational Sciences (NCATS), 2010) are described below.

As a reminder, the AC50 is the midpoint of the concentration-response curve, whichever way the signal moves. Low readings indicate activity at low concentration, high ones activity only at high concentration.

The list shows a part of the results. Shown are side measurements of this screen, not its main read-out; they come without a call. Compounds called inactive in the main read-out are mostly missing here. Potencies come from curve fits of mixed quality, noted in brackets.

The experiment can be described thus: qHTS Assay for Lipid Storage Modulators in Drosophila S3 Cells.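 As to cell number change: cells counted by Cell Tracker Red CMTPX staining in the red channel.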 The conditions noted are these: BODIPY lipid droplet fluorescence, 18-24 h; for cell number change: measured here: cell count max response, cells fed with added oleic acid. The essentials: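 Drosophila S3 cells loaded with oleic acid (400 uM, as added) and compounds at several concentrations; lipid droplets imaged by 488-nm laser-scanning cytometry, 500–530 nm intensity and object ratio to cell channel. Percent activity normalized to 20 uM Triacsin C.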
(qHTS replaces the single test concentration by a dilution series.)

Setting [1] is: measured here: lipid fluorescence (Fed channel) AC50, cells fed with added oleic acid.
Where [2] appears, read: measured here: cell number channel AC50, cells fed with added oleic acid.

Take `O=C(NNC(=O)C1CCCC1)c1ccc(F)cc1`: the cell number change came out at 24.6%.

On to `CCOc1ccc(Cn2c(=O)sc3ccccc32)cc1OC`, for which the cell number change is 12.2%. Under setting [1], the AC50 is 2.91 µM [rising, partial curve]. On to `COc1ccccc1NC(=O)NC(=O)N(C(C)C)S(C)(=O)=O`, for which the cell number change was found to be 47.1%. Besides, the AC50 under setting [2] is 29.1 µM [rising, single point]. Further, under setting [1], the AC50 was 29.1 µM [rising, single point].

Regarding `Cc1nnsc1-c1nnc(SCC(=O)c2ccccc2)n1C1CC1`, the cell number change amounted to 9.74%. Besides, the AC50 under setting [1] is 6.51 µM [rising, single point].

In the case of `COC(=O)CSc1snnc1-c1ccc(Cl)cc1Cl`, the cell number change is -29.9%. Further, the AC50 under setting [1] was 29.1 µM [falling, single point]. For the compound `O=C1CSC(c2cccs2)N1c1ccccc1` (stereo unspecified), the cell number change was -1.12%. Moreover, under setting [1], the concentration at half-maximal activity (AC50) was 0.259 µM [falling, full curve, poor fit].

For the compound `CCCCn1c(N)c(N(CCOC)C(=O)c2ccc(NC3CC3)c([N+](=O)[O-])c2)c(=O)[nH]c1=O`, the AC50 under setting [1] is 5.17 µM [rising, full curve]. Consider `Cc1ccc(C(=O)NN=C2CCCCCC2)s1`, for which the cell number change was -1.98%. In addition, the AC50 under setting [1] was 14.6 µM [rising, partial curve].

As for `Cc1ccc(C(=O)NCCNC(=O)c2ccccc2)cc1`, the cell number change is -6.86%. Under setting [1], the half-maximal activity concentration (AC50) is 25.9 µM [falling, partial curve]. On to `O=C(O)CC/C(=N\NC(=O)c1ccc(F)cc1)c1ccc(Br)cc1`, for which the cell number change worked out at 74.2%. Besides, the AC50 under setting [2] was 4.61 µM [rising, full curve]. On to `CC(C)CNc1nc(N)c([N+](=O)[O-])c(NCC2CCCO2)n1` (stereo unspecified), for which the AC50 under setting [1] is 5.17 µM [rising, partial curve]. In the case of `Cc1c(OCC(=O)NCC2CCC(C(=O)NCCCO)CC2)ccc2c(-c3ccccc3)cc(=O)oc12` (stereo unspecified), the cell number change is 0.895%. Besides, under setting [1], the concentration at half-maximal activity (AC50) is 1.46 µM [rising, partial curve, poor fit]. With `CN1/C(=C/C=C(C#N)C#N)C(C)(C)c2ccccc21`, the AC50 under setting [1] was 18.4 µM [falling, single point]. Take `CCN(CC)CCN(C(=O)c1cc2c(ccc3ccccc32)oc1=O)c1nc2cc3c(cc2s1)OCCO3`: the cell number change is 1.51%.

On to `CCOC(=O)N1CCN(CC(O)c2ccccc2)CC1` (stereo unspecified), for which the cell number change amounted to 50.8%. Under setting [2], the half-maximal activity concentration (AC50) is 0.731 µM [rising, partial curve]. With `OC(c1cc(C(F)(F)F)nc2c(Cl)cc(Cl)cc12)C1CCCCN1` (stereo unspecified), the cell number change is -49.1%. Further, the AC50 under setting [2] was 25.9 µM [falling, single point]. Besides, the concentration at half-maximal activity (AC50) under setting [1] was 23.1 µM [falling, single point]. Consider `Cn1c(=O)c2c(nc(NN=C3CCCCC3)n2C)n(C)c1=O`, for which the cell number change turned out to be 22.2%. The AC50 under setting [1] is 20.6 µM [rising, single point]. As for `O=C(Cc1ccccc1)NCCn1ccc2ccccc21`, the AC50 under setting [1] was 3.66 µM [falling, partial curve, poor fit]. Regarding `Cc1ccc(NCc2nnc(SCC(=O)N(Cc3ccccc3)C(C)(C)C)o2)c(C)c1`, the cell number change turned out to be 5.56%. Turning to `CCOC(=O)C1CCN(Cc2cc(=O)oc3c(C)c(C)ccc23)CC1`, the cell number change was 71.2%. Further, under setting [2], the AC50 was 32.6 µM [rising, partial curve, poor fit].

Consider `CCN1CCN(c2ccc(S(=O)(=O)N3CCCCC3)cc2NC(=O)COc2ccccc2)CC1`, for which the cell number change turned out to be 40.1%. Also, the AC50 under setting [2] is 13 µM [rising, partial curve].

Consider `CCC(C(=O)O/N=C(\N)c1ccc(C)cc1)c1ccccc1` (stereo unspecified), for which the cell number change was 71.4%. Further, under setting [2], the AC50 was 20.6 µM [rising, partial curve]. Regarding `CCc1c(C)[nH]n(-c2ccc(Oc3ccccc3)c(S(=O)(=O)O)c2)c1=O`, the cell number change was 1.68%.

Turning to `Cc1ccc(C)c(Cn2c(=O)n(CCC(=O)NCc3ccco3)c(=O)c3ccccc32)c1`, the cell number change is 51.5%. In addition, the AC50 under setting [2] is 18.4 µM [rising, partial curve]. Moreover, under setting [1], the half-maximal activity concentration (AC50) was 0.651 µM [rising, partial curve, poor fit]. `COc1cc2c(cc1NC(=O)COC(=O)/C=C/c1ccc([N+](=O)[O-])cc1)oc1ccccc12`: the cell number change was 15.4%. Further, the AC50 under setting [1] was 3.66 µM [rising, partial curve, poor fit].

Turning to `O=S(=O)(NCCc1ccccc1)c1cccs1`, the cell number change was found to be 24.8%. The AC50 under setting [2] is 0.00411 µM [rising, full curve, poor fit]. The AC50 under setting [1] was 29.1 µM [rising, single point]. With `CCN(CC(=O)Nc1ccc(OC)cc1)C(=O)CSCC(=O)Nc1cc(C)on1`, the cell number change was -2.85%. As for `C=CCOC(=O)/C(=C\c1ccccc1)NC(=O)c1ccco1`, the cell number change worked out at 7.82%. Moreover, under setting [1], the AC50 is 18.4 µM [rising, partial curve].

Consider `O=C(NCc1ccccc1F)C1CCCN(S(=O)(=O)c2ccc(-n3cnnn3)cc2)C1` (stereo unspecified), for which the AC50 under setting [2] was 0.146 µM [rising, full curve, poor fit].

With `CC1=NC(C(F)(F)F)(C(F)(F)F)C(C#N)=C(C)N1`, the cell number change was determined as 15.8%. Also, under setting [1], the concentration at half-maximal activity (AC50) was 25.9 µM [falling, partial curve].

With `O=C(Nc1ccc(Cl)cc1C(=O)NCc1cccnc1)c1ccco1`, the AC50 is 2.31 µM [rising, partial curve] under setting [2] and 2.59 µM [rising, partial curve] under setting [1].

Consider `O=C(COc1ccccc1Cl)N(Cc1ccco1)C1CCS(=O)(=O)C1` (stereo unspecified), for which the cell number change was -4.26%. Also, the AC50 under setting [1] is 29.1 µM [rising, single point]. For `O=C(c1ccc(Cl)cc1)N1CCN(c2ccnc3cc(Cl)ccc23)CC1`, the cell number change is -11.8%. Also, under setting [1], the AC50 is 1.64 µM [falling, partial curve, poor fit]. In the case of `Cc1cc(NC(=O)CN2CC(C)OC(C)C2)n(-c2nc3ccccc3s2)n1` (stereo unspecified), the concentration at half-maximal activity (AC50) reads like this: under setting [2], 1.64 µM [rising, partial curve]; under setting [1], 1.84 µM [rising, full curve].

`N#Cc1cccc(NC(=O)CN2C(=O)NC3(CCCCCC3)C2=O)c1`: the cell number change is -9.16%. The concentration at half-maximal activity (AC50) under setting [1] is 3.26 µM [falling, single point]. `Cc1cc(C(=O)NC2CCCN(Cc3ccc(Cl)cc3)C2)c(C)o1` (stereo unspecified): the cell number change is 51.9%. Besides, the concentration at half-maximal activity (AC50) under setting [2] was 23.1 µM [rising, single point].

In the case of `CC(=O)c1ccc(OCC(O)CN2CCN(CCO)CC2)cc1` (stereo unspecified), the cell number change was -11.8%. Besides, the AC50 under setting [1] is 0.13 µM [falling, full curve, poor fit]. As to `C[C@H](NC(=O)[C@@H]1CSC2c3ccccc3C(=O)N21)C(=O)NC1CCCC1` (stereo partly specified), the cell number change was -22.6%. Take `O=C(COc1cc2oc(=O)c3c(c2cc1Cl)CCC3)NCCCn1ccnc1`: the cell number change is -39.5%. Further, the AC50 under setting [2] was 23.1 µM [falling, partial curve]. In addition, the AC50 under setting [1] is 6.51 µM [falling, partial curve]. For `O=C(COC(=O)c1ccc(S(=O)(=O)N2CCCCC2)cc1)NCc1ccco1`, the cell number change is -2.44%. Take `CC(=O)Nc1ccc(CC(=O)O)cc1`: under setting [1], the AC50 was 29.1 µM [rising, single point]. With `COc1cc(S(=O)(=O)NCCc2ccc3c(c2)OCO3)ccc1-n1cnnn1`, the cell number change came to 24.1%. Further, the AC50 under setting [2] is 0.092 µM [rising, full curve, poor fit]. On to `Cc1sc2c(c1C)c(=O)nc1n2Cc2ccccc2-1`, for which the cell number change was determined as 33.4%. Moreover, the half-maximal activity concentration (AC50) under setting [2] was 16.4 µM [rising, single point]. With `C=CCn1cc(CN2CCC(C(=O)Nc3ccc(Oc4cccnc4)cc3)CC2)c(C)n1`, the cell number change amounted to 8.73%. Regarding `C=CCn1c(SCC(=O)N2CCOCC2)nc2sc(C)c(C)c2c1=O`, the cell number change is -2.38%. In the case of `CCOc1ccccc1N1CC(C(=O)Nc2ccccc2CC)CC1=O` (stereo unspecified), the cell number change was -8.97%. Take `COc1ccc(OCC(O)COc2ccc(OC)cc2)cc1`: the cell number change amounted to 30.1%. In addition, the concentration at half-maximal activity (AC50) under setting [2] was 29.1 µM [rising, single point]. For `O=C(CSCCO)Nc1cccc2ccccc12`, the cell number change was -11.4%.

On to `O=C1N(c2ccccc2)c2ccccc2C1(O)C(F)(F)F` (stereo unspecified), for which the cell number change is 7.21%.

As to `O=C(COC(=O)C1CC1)Nc1c(Cl)cccc1C(F)(F)F`, the cell number change was determined as 3.5%. For the compound `Cc1c(C)c2ccc(OCC(=O)N(C)C)c(C)c2oc1=O`, the cell number change is -5.83%. Further, the AC50 under setting [1] was 29.1 µM [rising, single point]. For `CN(c1ccccc1)S(=O)(=O)c1cccc(NC(=O)CSc2nnc(N)s2)c1`, the cell number change is 0.445%. The AC50 under setting [2] was 2.31 µM [rising, partial curve]. With `CCc1c(C)[nH]c2ccc(C)cc2c1=O`, the cell number change came out at 11%. Also, the AC50 under setting [1] is 29.1 µM [falling, single point]. `COc1ccccc1NC(=O)OCC#CCOC(=O)Nc1ccccc1OC`: the cell number change was determined as 88.3%. Under setting [2], the half-maximal activity concentration (AC50) is 14.6 µM [rising, partial curve]. Also, the AC50 under setting [1] is 18.4 µM [rising, partial curve].

`COc1ccc(OC)c(NC(=O)[C@@H]2CCCN2C(=O)c2cccs2)c1`: the cell number change is -50%. In addition, the AC50 under setting [2] is 29.1 µM [falling, single point]. As for `Cc1ccc(-c2csc3ncn(Cc4ccc(C(=O)O)cc4)c(=O)c23)cc1C`, the AC50 under setting [2] was 0.00461 µM [rising, full curve, poor fit]. For the compound `CCOc1ccccc1N(CC(=O)N1CCC(C)CC1)S(=O)(=O)c1ccc(C)cc1`, the cell number change worked out at 4.99%. Besides, the concentration at half-maximal activity (AC50) under setting [1] is 5.8 µM [falling, full curve, poor fit]. For `CCc1ccccc1NC(=O)N[C@H](C(=O)O)C(C)CC` (stereo partly specified), the cell number change is -92.9%. Moreover, the concentration at half-maximal activity (AC50) under setting [2] was 29.1 µM [falling, single point]. For `O=S1(=O)CCO[C@H]2Cc3ccccc3[C@H]2N1Cc1ccccc1F`, the cell number change is -5.18%. Further, under setting [2], the AC50 was 6.51 µM [rising, partial curve, poor fit].

Take `O=Cc1cc2ccccc2nc1SCCCF`: the cell number change is -14%. The AC50 under setting [2] was 0.82 µM [falling, single point]. Also, the AC50 under setting [1] was 3.26 µM [falling, partial curve]. Consider `CCOCC(=O)Nc1nc2ccc(OC)cc2s1`, for which, under setting [1], the half-maximal activity concentration (AC50) is 0.82 µM [falling, single point]. `COc1ccc(OCCn2cc(/C=C(\C#N)C(=O)NCc3ccco3)c3ccccc32)cc1`: the cell number change is -20.7%. With `CC(=O)c1c(C)[nH]c(C(=O)OCC(=O)Nc2sc3c(c2C#N)CCC(C)C3)c1C` (stereo unspecified), the cell number change amounted to 14.4%. Besides, the half-maximal activity concentration (AC50) under setting [1] was 18.4 µM [rising, single point]. In the case of `CCOC(=O)c1sc(NCC2CCCO2)nc1C` (stereo unspecified), the cell number change worked out at 3.06%. Same read-out and setting: as for `CCNC(=S)N(CCc1c(C)[nH]c2ccc(Cl)cc12)Cc1cccnc1`, the figure is -11.7%. In the case of `CCCCC(=O)Nc1nn(CC(C)C)c2nc3ccccc3cc12`, the cell number change is -12.8%. Moreover, under setting [2], the AC50 is 6.51 µM [rising, single point]. In addition, under setting [1], the AC50 was 0.461 µM [rising, partial curve].
